The supplement of paper PMC10849652
The list shows a part of the results.

Sequences of proteins named here, by UniProt entry; tags and fusion partners are left off. A change or cut given only in a name is not applied to a line headed by its entry.
UniProt Q5XUX1: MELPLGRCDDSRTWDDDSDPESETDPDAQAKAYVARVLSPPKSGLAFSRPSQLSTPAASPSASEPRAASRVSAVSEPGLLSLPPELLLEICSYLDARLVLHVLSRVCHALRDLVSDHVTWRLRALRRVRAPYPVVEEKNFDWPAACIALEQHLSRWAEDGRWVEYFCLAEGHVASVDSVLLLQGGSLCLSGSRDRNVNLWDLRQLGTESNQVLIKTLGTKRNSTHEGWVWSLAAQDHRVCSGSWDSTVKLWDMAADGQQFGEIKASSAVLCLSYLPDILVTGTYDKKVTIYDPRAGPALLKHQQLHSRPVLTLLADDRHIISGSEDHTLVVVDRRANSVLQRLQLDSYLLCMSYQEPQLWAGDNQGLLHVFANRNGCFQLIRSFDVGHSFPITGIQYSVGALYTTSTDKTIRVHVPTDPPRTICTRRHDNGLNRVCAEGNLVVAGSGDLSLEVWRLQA
UniProt O43427: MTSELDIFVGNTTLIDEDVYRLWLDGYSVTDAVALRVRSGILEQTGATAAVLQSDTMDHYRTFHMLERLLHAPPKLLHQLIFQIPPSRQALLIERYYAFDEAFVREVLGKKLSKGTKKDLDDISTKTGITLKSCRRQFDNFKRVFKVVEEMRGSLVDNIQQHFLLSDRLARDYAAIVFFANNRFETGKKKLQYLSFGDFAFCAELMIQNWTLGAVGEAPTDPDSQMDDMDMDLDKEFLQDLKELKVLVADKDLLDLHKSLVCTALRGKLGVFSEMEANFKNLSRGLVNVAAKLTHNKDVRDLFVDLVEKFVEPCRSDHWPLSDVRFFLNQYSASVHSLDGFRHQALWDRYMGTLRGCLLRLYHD
UniProt Q9NXK8: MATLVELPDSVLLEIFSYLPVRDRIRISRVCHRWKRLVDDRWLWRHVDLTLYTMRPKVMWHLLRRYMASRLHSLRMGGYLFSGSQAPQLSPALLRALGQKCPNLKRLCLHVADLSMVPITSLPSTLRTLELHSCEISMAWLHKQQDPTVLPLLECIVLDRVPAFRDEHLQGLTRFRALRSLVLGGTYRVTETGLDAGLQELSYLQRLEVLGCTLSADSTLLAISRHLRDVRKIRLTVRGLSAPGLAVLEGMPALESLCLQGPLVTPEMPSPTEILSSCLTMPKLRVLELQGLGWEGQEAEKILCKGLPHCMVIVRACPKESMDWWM
UniProt A6NHQ2: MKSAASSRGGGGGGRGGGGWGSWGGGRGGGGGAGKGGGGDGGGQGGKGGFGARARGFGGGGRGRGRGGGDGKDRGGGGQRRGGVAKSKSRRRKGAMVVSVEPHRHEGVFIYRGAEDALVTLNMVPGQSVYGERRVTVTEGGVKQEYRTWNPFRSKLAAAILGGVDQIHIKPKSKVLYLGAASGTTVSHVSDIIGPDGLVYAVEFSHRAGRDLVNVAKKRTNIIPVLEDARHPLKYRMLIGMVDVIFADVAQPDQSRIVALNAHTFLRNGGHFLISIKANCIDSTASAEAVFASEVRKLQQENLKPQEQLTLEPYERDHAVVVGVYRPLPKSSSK
UniProt P49327, whole entry, looked up: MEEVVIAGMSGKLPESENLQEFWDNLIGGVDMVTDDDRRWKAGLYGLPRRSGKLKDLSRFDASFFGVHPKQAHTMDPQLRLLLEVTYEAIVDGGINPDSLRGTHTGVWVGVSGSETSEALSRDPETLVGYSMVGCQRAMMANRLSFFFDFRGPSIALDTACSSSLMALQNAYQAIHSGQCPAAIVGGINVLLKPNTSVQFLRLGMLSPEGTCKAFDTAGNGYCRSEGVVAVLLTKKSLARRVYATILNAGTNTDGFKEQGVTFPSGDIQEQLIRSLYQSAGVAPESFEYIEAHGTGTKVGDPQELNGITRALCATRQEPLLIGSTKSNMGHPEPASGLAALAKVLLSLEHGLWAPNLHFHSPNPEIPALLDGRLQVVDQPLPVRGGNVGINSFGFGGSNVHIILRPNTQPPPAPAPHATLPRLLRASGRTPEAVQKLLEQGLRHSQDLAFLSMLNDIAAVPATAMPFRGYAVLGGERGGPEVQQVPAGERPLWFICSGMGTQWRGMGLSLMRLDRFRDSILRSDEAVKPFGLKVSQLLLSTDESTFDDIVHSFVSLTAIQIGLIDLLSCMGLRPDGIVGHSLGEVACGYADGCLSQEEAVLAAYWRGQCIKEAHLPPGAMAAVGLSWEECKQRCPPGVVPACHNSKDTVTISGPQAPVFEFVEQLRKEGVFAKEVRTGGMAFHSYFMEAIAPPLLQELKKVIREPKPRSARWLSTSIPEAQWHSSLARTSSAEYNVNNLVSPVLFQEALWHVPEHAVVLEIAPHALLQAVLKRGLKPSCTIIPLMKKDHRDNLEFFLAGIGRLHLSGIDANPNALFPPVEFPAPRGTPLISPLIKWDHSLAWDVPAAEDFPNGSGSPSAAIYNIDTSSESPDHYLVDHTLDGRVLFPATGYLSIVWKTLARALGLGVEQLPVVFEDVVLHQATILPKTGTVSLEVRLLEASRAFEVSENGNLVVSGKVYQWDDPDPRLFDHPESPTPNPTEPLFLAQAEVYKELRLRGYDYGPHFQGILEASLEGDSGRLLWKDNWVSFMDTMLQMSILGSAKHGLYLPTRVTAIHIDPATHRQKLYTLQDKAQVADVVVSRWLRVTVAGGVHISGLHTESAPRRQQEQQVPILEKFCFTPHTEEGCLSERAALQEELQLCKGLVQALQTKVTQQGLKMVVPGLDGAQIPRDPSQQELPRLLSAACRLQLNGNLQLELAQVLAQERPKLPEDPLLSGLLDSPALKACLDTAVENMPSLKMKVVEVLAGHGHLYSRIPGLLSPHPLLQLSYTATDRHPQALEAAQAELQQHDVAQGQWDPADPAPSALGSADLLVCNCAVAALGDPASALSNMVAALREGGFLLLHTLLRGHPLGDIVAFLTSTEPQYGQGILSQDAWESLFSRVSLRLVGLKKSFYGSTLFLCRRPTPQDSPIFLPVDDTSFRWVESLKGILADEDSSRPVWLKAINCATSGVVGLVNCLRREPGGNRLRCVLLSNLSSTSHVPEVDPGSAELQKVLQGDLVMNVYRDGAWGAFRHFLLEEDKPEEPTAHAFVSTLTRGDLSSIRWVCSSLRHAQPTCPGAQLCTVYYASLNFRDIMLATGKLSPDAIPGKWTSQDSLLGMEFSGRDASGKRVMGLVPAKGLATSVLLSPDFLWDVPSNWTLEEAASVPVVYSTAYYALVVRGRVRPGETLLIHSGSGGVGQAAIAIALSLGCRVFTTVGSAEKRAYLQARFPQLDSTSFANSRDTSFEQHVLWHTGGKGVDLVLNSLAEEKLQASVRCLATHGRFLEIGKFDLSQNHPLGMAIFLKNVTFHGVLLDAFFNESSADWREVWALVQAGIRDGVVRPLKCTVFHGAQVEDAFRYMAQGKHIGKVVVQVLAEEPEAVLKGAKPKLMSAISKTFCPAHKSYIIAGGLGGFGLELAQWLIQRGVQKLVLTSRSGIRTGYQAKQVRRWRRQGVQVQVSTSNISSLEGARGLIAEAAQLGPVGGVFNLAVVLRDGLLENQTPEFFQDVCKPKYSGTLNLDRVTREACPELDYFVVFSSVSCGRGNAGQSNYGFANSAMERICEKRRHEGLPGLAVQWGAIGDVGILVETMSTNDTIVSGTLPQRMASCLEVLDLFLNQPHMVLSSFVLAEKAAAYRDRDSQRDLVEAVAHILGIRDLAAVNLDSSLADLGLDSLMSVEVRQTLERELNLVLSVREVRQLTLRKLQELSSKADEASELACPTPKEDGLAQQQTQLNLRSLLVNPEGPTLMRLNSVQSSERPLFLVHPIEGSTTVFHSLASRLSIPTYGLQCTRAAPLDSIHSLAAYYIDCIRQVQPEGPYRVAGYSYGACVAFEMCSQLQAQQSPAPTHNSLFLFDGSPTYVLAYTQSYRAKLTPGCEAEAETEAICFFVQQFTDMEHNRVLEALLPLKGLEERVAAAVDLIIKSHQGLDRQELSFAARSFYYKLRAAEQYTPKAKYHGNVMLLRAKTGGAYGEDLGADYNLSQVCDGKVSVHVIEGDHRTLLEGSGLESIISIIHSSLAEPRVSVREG
UniProt P26885: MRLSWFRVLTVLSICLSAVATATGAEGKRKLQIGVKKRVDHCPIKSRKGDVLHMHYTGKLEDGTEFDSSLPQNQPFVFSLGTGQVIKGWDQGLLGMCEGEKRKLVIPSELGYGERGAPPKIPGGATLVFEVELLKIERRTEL
UniProt Q96CD0: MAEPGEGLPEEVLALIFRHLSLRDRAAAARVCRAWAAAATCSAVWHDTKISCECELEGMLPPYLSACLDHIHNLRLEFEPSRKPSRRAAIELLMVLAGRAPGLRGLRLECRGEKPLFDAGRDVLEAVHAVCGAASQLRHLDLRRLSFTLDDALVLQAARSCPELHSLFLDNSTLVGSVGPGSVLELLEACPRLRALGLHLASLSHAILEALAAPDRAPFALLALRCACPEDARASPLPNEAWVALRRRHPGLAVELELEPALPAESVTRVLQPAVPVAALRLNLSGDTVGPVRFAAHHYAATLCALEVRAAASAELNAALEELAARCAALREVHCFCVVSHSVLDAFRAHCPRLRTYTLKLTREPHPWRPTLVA
UniProt Q5T0N5: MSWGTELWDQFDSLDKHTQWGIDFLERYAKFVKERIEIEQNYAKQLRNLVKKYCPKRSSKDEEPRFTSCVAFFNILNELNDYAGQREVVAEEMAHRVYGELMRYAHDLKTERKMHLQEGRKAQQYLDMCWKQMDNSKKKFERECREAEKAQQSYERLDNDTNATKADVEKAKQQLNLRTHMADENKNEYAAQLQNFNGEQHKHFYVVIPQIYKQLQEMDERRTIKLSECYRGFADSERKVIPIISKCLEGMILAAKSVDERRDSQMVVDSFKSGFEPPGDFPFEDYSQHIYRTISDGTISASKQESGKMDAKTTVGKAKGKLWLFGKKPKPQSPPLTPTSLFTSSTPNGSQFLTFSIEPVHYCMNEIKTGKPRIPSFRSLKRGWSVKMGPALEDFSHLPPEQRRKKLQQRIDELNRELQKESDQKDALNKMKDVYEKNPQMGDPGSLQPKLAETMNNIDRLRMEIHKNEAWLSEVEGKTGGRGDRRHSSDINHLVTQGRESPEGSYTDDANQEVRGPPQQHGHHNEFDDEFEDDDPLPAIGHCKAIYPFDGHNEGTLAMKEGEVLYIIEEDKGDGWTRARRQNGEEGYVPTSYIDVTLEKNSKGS
UniProt Q9UK99: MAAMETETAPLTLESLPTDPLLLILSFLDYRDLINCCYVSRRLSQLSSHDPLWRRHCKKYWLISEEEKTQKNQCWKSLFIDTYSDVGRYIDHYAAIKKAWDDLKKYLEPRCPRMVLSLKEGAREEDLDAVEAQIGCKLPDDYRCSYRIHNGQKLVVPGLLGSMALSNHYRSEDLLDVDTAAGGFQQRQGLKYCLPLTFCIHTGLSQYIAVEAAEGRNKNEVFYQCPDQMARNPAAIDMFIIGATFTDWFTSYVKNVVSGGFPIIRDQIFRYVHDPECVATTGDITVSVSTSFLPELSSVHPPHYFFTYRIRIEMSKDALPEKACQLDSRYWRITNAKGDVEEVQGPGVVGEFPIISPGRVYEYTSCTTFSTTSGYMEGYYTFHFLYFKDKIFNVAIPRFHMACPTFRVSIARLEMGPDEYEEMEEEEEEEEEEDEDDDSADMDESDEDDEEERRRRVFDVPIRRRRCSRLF
UniProt Q9UHY8: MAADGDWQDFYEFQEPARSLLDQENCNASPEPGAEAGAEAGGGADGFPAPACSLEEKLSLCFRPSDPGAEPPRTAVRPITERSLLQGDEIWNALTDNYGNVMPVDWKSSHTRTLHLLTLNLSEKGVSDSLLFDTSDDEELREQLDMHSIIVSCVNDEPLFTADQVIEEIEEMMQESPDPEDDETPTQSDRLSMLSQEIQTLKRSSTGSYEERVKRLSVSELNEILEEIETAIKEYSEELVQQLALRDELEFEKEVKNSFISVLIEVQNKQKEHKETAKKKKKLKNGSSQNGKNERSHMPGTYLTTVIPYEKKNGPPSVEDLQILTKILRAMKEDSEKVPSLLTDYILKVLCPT
UniProt Q8NFG4: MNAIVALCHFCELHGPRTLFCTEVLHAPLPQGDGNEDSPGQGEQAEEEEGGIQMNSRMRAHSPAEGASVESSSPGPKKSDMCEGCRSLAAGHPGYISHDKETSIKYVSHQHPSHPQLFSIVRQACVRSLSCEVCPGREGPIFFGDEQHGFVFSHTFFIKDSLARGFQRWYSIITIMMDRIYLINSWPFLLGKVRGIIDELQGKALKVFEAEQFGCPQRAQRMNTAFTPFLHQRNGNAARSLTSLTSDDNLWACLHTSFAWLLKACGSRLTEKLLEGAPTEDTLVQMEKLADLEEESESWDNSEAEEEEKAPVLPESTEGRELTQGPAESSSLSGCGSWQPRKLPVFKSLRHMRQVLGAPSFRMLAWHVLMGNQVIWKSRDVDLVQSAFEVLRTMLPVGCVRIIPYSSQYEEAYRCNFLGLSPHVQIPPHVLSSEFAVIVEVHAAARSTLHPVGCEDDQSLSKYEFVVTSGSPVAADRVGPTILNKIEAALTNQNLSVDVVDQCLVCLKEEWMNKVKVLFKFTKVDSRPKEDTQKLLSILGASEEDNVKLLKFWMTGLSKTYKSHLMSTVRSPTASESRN

What follows are targets tested with NC(=O)Nc1cc(-c2cccc(F)c2)sc1C(=O)N[C@H]1CCCNC1 (assay: log2 fold change, soluble protein after heating vs DMSO (PISA); higher = thermal stabilisation; K562 lysate, 10 uM; active = over 0.2 and 3.5 SD of the protein, either way, in both replicates (recomputed)).
Procedure, shortened: (§1)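 Thermal stability, expressed as log-two fold change relative to solvent controls, is given from duplicates. Crude K562 extract in PBS pH 7.4 with 1 mM MgCl2, at 1 mg/mL protein, was treated with 10 μM compound for 30 min and heated in aliquots for 3 min across 48°C-58°C. After pooling, adjustment to 0.5% NP-40 at 4°C and centrifugation at 21,000xg for 90 min, supernatant protein was measured by TMTpro 16plex LC-MS/MS with channel sums equalised.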

log2 fold change, inactive:
FKBPL (UniProt Q9UIM3) 0.006
FAR1 (UniProt Q8WVX9) 0.002
FLII (UniProt Q13045) 0.027
FAU (UniProt E9PR30) -0.055
FGFR1OP (UniProt O95684) -0.02
FNTB (UniProt P49356) 0.003
FBXO6 (UniProt Q9NRD1) 0.014
FGD6 (UniProt Q6ZV73) 0.064
FLAD1 (UniProt Q8NFF5) 0.03
FLNC (UniProt Q14315) -0.019
FAM8A1 (UniProt Q9UBU6) 0.072
FBXW9 (UniProt Q5XUX1) 0.023
FAM98C (UniProt Q17RN3) 0.13
FIBP (UniProt O43427) 0.024
FBXL12 (UniProt Q9NXK8) 0.054
FBLL1 (UniProt A6NHQ2) 0.026
FN1 (UniProt P02751) 0
FECH isoform 2 (UniProt P22830) -0.013
FAM98A (UniProt Q8NCA5) -0.004
FASN (UniProt P49327) 0.019
FKBP2 (UniProt P26885) 0.055
FMNL1 isoform 3 (UniProt O95466) -0.051
FKBP8 isoform 2 (UniProt Q14318) 0.067
FBXL18 isoform 4 (UniProt Q96ME1) 0.026
FKBP5 (UniProt Q13451) 0.021
FDXR isoform 7 (UniProt P22570) 0.028
FLNB isoform 8 (UniProt O75369) -0.004
FBXL8 (UniProt Q96CD0) -0.001
FERMT3 (UniProt Q86UX7) 0.002
FNBP1L (UniProt Q5T0N5) 0.018
FBXO3 (UniProt Q9UK99) 0.045
FEZ2 isoform 2 (UniProt Q9UHY8) 0.02
FLCN (UniProt Q8NFG4) 0

These targets were tested with NC(=O)c1cnc(N[C@@H]2CCCC[C@@H]2N)nc1Nc1cccc(-n2nccn2)c1 in the same assay as above.
Procedure, shortened: as §1

log2 fold change, inactive:
FKBPL (UniProt Q9UIM3) 0.038
FAR1 (UniProt Q8WVX9) 0.029
FLII (UniProt Q13045) -0.004
FAU (UniProt E9PR30) 0
FGFR1OP (UniProt O95684) -0.011
FNTB (UniProt P49356) -0.011
FBXO6 (UniProt Q9NRD1) -0.044
FGD6 (UniProt Q6ZV73) 0.396
FLAD1 (UniProt Q8NFF5) 0.017
FLNC (UniProt Q14315) -0.017
FAM8A1 (UniProt Q9UBU6) 0.119
FBXW9 (UniProt Q5XUX1) 0.004
FAM98C (UniProt Q17RN3) 0.199
FIBP (UniProt O43427) 0
FBXL12 (UniProt Q9NXK8) -0.008
FBLL1 (UniProt A6NHQ2) -0.037
FN1 (UniProt P02751) -0.023
FECH isoform 2 (UniProt P22830) 0.139
FAM98A (UniProt Q8NCA5) -0.028
FASN (UniProt P49327) -0.002
FKBP2 (UniProt P26885) -0.044
FMNL1 isoform 3 (UniProt O95466) 0.012
FKBP8 isoform 2 (UniProt Q14318) 0.02
FBXL18 isoform 4 (UniProt Q96ME1) 0.012
FKBP5 (UniProt Q13451) 0.011
FDXR isoform 7 (UniProt P22570) 0.002
FLNB isoform 8 (UniProt O75369) -0.013
FBXL8 (UniProt Q96CD0) 0.014
FERMT3 (UniProt Q86UX7) -0.013
FNBP1L (UniProt Q5T0N5) -0.004
FBXO3 (UniProt Q9UK99) 0.008
FEZ2 isoform 2 (UniProt Q9UHY8) 0.029
FLCN (UniProt Q8NFG4) 0.024

Each target was assayed with NC1(c2ccc(-c3nc4ccn5c(=O)[nH]nc5c4cc3-c3ccccc3)cc2)CCC1 in the same assay as above.
Procedure, shortened: as §1

log2 fold change, inactive:
FKBPL (UniProt Q9UIM3) 0.022
FAR1 (UniProt Q8WVX9) -0.118
FLII (UniProt Q13045) -0.004
FAU (UniProt E9PR30) -0.058
FGFR1OP (UniProt O95684) -0.013
FNTB (UniProt P49356) -0.027
FBXO6 (UniProt Q9NRD1) 0.016
FGD6 (UniProt Q6ZV73) -0.061
FLAD1 (UniProt Q8NFF5) -0.026
FLNC (UniProt Q14315) 0.01
FAM8A1 (UniProt Q9UBU6) -0.004
FBXW9 (UniProt Q5XUX1) -0.028
FAM98C (UniProt Q17RN3) -0.07
FIBP (UniProt O43427) 0
FBXL12 (UniProt Q9NXK8) -0.006
FBLL1 (UniProt A6NHQ2) 0
FN1 (UniProt P02751) 0.01
FECH isoform 2 (UniProt P22830) 0.053
FAM98A (UniProt Q8NCA5) -0.014
FASN (UniProt P49327) 0.007
FKBP2 (UniProt P26885) -0.008
FMNL1 isoform 3 (UniProt O95466) -0.042
FKBP8 isoform 2 (UniProt Q14318) 0.005
FBXL18 isoform 4 (UniProt Q96ME1) 0.01
FKBP5 (UniProt Q13451) 0.025
FDXR isoform 7 (UniProt P22570) -0.044
FLNB isoform 8 (UniProt O75369) 0.003
FBXL8 (UniProt Q96CD0) -0.059
FERMT3 (UniProt Q86UX7) -0.025
FNBP1L (UniProt Q5T0N5) 0.025
FBXO3 (UniProt Q9UK99) 0.015
FEZ2 isoform 2 (UniProt Q9UHY8) -0.023
FLCN (UniProt Q8NFG4) -0.011
